# Laboratory results as given in publication PMC5996148.
# Where “and” joins values, the source holds several entries; their conditions need not be identical. Equal values may be shown once. The list shows a part of the results. For some of these results: The exact form of the protein is not confirmed.
# What was measured:
# Test in all cases: protein microarray (ProtoArray v5.0), streptavidin-Alexa Fluor 647
# Conditions in all cases: 3'-biotin; 20 mM Tris (pH 7.5), 5 mM MgCl2, 100 mM KCl, 0.1% Tween-20, A/T-rich and random oligonucleotide blockers; temperature not stated; high values mean tight binding
# CBR4 (human) = tested on: CBR4 (human)
# CBS (human) = tested on: CBS (human)
# CCBL1 (human) = tested on: CCBL1 (human)
# CCBL2 (human) = tested on: CCBL2 (human)
# CCDC107 (human) = tested on: CCDC107 (human)
# CCDC115 = target: T1, CCDC115 (UniProt Q96NT0)
# T1 sequence: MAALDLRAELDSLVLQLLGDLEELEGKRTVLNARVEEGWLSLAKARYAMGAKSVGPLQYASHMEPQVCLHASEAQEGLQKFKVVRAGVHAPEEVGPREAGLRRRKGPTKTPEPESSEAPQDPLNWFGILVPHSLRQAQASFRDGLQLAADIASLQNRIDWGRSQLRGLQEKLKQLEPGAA
# CCDC12 (human) = tested on: CCDC12 (human)
# CCDC126 (human) = tested on: CCDC126 (human)
# CCDC14 (human) = tested on: CCDC14 (human)
# CCDC21 = target: T2, CCDC21 (UniProt Q6P2H3)
# T2 sequence: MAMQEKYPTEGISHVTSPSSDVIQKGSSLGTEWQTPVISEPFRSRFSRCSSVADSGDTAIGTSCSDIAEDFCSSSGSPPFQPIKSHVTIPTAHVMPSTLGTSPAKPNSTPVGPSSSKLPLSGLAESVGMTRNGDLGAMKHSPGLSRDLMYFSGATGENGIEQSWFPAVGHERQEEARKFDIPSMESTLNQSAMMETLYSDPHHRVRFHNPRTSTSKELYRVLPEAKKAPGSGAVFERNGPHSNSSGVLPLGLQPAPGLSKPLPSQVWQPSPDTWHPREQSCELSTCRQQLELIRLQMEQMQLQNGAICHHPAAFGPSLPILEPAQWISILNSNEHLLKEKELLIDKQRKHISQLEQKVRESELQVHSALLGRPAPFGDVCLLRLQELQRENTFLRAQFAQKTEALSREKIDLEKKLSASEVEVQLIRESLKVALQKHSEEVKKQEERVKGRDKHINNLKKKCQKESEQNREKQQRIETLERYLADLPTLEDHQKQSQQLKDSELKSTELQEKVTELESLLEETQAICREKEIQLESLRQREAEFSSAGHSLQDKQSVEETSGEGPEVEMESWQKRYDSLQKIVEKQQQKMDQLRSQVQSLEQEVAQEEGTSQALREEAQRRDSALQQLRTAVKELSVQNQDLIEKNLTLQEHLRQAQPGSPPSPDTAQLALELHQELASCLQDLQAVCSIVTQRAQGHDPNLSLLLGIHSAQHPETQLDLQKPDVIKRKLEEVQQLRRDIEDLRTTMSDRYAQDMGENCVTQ
sequence,measurement,setting,value
GGGAGGCTGAGGCAGG [G4-1 biotinylated (PQS2)],binding signal,CBR4 (human),-0.34 z-score
same,binding signal,CBS (human),-0.359 z-score
same,binding signal,CCBL1 (human),-0.244 z-score
same,binding signal,CCBL2 (human),-0.296 z-score
same,binding signal,CCDC107 (human),-0.358 z-score and -0.282 z-score
same,binding signal,CCDC115,-0.342 z-score
same,binding signal,CCDC12 (human),-0.294 z-score
same,binding signal,CCDC126 (human),-0.305 z-score
same,binding signal,CCDC14 (human),-0.305 z-score
same,binding signal,CCDC21,-0.287 z-score

# An excerpt of these results, as tab-separated lines.
sequence	measurement	setting	value
GGGAGGCTGAGGCAGG [G4-1 biotinylated (PQS2)]	binding signal	CBR4 (human)	-0.34 z-score
same	binding signal	CCDC21	-0.287 z-score
